Results: article PMC4869170
No constants are given. Whether binding was seen depends on the method and setting. In cells and extracts the contact can be indirect. A yes stands for co-enrichment or nearness to the bait. Other partners may have been found. Values belong to the substance of their own block, whether it stands above or below them.

The chains behind the UniProt entries cited, without tags or fusion partners.
UniProt Q92949: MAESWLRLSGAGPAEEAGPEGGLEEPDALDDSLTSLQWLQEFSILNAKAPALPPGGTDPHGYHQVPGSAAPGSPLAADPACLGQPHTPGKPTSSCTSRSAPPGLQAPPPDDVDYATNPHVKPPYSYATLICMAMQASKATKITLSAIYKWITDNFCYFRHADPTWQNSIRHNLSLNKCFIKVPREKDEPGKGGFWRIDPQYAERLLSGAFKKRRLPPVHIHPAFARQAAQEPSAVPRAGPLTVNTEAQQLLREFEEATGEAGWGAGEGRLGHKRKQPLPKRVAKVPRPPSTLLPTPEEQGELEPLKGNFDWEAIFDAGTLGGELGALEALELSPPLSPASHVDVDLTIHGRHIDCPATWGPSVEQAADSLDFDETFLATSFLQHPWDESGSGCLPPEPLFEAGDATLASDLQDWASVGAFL
UniProt Q9Y266: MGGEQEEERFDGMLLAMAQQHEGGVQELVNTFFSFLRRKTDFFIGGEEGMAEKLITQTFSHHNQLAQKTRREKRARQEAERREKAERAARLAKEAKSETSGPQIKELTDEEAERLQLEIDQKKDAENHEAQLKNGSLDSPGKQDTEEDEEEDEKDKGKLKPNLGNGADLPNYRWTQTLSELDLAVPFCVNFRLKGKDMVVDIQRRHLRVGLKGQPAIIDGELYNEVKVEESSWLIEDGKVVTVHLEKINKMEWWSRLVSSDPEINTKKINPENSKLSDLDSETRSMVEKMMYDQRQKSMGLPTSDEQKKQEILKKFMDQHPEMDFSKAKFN
UniProt Q15599: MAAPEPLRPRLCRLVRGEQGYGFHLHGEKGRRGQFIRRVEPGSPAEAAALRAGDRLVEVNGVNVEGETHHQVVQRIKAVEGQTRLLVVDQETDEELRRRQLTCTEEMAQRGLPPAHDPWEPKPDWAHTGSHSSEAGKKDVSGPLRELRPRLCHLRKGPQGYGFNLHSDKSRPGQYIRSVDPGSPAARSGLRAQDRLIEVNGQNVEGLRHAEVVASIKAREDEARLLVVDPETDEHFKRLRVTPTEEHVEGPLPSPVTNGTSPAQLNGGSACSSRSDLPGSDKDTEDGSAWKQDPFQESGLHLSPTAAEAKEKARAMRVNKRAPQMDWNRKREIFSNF
UniProt P53350: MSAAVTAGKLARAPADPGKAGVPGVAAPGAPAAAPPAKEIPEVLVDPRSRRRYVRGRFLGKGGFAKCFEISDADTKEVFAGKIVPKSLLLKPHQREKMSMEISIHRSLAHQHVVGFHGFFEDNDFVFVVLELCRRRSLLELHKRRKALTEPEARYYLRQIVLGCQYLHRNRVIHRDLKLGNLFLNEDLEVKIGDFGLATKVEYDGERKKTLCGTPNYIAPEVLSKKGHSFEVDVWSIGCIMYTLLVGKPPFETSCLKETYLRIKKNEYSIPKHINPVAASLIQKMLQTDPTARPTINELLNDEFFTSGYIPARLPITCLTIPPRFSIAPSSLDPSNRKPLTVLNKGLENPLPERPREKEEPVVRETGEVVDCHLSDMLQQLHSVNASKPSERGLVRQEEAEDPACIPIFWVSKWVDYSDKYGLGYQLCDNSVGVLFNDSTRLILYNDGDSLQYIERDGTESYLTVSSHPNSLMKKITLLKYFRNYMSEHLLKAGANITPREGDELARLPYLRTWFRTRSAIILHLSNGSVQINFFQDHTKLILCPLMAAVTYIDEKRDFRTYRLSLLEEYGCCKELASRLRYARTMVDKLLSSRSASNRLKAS
UniProt Q9UDY4: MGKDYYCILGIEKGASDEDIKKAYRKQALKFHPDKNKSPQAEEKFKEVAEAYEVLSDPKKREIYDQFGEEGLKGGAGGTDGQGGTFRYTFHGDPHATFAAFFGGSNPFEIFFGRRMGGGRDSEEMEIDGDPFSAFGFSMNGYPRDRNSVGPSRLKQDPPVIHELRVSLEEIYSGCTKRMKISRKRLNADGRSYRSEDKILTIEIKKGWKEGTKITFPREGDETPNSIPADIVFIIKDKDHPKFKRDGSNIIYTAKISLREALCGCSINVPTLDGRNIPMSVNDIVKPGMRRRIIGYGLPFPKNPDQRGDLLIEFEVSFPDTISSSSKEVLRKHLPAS
UniProt P32780: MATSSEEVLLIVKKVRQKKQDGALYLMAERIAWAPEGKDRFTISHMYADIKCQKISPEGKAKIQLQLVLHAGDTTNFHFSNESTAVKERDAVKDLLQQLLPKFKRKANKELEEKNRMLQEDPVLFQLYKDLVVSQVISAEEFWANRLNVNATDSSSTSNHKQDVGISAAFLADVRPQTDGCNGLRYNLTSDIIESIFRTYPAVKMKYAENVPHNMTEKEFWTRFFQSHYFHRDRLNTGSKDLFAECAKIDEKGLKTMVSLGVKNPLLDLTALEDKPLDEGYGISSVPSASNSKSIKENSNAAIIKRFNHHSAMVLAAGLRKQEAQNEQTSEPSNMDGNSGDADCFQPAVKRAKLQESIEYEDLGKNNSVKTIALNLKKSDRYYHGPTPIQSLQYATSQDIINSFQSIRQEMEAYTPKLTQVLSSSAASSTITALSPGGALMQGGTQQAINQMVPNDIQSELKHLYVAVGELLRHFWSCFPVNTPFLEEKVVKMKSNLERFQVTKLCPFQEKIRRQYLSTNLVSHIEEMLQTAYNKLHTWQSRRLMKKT
UniProt P46937: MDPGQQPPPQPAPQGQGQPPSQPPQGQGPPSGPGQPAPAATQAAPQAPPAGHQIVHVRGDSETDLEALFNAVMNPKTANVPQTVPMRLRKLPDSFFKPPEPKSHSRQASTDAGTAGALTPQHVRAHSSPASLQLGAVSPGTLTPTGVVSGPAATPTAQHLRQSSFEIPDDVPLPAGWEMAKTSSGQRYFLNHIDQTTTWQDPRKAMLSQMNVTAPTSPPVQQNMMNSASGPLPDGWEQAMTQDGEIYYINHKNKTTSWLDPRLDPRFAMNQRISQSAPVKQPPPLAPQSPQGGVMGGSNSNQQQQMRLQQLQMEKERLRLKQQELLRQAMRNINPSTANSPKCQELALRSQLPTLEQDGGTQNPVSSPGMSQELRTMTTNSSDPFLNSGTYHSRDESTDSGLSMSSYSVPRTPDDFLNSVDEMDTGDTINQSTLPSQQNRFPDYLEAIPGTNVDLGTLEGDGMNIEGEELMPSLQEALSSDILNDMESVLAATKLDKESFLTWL
UniProt O75147: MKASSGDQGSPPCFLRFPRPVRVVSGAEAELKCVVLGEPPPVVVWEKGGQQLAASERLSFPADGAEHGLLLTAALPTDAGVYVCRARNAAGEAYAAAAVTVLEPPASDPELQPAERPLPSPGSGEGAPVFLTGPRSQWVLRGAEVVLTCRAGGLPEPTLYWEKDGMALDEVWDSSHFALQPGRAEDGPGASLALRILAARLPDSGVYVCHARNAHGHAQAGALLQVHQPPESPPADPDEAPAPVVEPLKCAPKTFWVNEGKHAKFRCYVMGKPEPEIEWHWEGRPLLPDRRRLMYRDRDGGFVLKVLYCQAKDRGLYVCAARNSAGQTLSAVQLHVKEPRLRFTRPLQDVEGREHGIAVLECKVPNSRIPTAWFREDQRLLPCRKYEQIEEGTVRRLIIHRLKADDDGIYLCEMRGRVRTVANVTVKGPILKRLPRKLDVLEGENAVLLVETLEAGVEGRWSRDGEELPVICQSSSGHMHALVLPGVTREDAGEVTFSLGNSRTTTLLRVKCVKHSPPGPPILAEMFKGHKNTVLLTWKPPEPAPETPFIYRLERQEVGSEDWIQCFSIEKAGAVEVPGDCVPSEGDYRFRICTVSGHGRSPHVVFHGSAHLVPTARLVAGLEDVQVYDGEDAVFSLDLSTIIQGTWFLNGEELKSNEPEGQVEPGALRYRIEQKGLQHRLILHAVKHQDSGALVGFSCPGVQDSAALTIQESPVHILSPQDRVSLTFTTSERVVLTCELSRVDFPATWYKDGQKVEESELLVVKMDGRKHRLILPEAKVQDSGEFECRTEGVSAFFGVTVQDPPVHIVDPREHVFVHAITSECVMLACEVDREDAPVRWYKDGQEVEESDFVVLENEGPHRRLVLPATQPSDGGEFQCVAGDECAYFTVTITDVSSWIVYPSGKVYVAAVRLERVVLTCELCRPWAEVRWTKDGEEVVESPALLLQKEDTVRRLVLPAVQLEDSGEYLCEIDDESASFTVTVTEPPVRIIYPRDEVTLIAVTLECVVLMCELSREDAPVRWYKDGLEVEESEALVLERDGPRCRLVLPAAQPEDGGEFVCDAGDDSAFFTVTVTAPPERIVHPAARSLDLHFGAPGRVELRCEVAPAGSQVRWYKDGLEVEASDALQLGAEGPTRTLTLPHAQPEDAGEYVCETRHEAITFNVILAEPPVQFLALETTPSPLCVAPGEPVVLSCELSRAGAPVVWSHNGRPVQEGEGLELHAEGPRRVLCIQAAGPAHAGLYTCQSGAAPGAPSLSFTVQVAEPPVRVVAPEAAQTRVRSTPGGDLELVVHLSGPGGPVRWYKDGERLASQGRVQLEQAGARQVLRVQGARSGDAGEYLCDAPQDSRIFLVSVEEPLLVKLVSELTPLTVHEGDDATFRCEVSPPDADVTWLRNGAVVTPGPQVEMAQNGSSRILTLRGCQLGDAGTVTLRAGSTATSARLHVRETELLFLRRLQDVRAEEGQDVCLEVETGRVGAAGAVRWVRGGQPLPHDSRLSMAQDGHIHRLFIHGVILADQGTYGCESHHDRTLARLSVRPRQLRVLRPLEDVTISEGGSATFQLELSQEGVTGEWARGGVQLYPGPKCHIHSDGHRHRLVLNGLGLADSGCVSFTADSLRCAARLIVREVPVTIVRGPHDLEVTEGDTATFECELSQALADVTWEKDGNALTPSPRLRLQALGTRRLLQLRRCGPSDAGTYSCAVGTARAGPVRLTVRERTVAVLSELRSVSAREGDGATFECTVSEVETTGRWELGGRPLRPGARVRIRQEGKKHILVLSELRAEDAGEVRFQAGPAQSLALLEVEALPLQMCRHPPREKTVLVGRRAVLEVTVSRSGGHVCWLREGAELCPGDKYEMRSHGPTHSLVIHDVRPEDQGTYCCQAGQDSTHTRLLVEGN
UniProt P25685: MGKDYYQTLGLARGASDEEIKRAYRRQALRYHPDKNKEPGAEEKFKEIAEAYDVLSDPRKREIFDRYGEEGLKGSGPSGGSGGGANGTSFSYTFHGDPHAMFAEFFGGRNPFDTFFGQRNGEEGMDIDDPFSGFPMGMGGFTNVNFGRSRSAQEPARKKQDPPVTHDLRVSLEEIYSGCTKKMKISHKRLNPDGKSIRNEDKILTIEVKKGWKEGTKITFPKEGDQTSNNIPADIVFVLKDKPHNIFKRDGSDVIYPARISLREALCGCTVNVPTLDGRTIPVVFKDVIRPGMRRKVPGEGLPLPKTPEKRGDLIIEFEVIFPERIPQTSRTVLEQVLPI

Experiments:
[1] = biological target: ciliogenesis transcription factor FOXJ1 (human) (UniProt Q92949); experiment: affinity purification with mass spectrometry; SF-TAP of tagged baits overexpressed in HEK293T (Strep-Tactin, then anti-FLAG M2 agarose, FLAG peptide elution; lysis 0.5% NP-40 in TBS, 4 °C); LC-MS/MS; interactions scored by socioaffinity (spoke and matrix evidence), FDR/FPR≤0.1
[2] = biological target: NUDC (human) (UniProt Q9Y266); experiment: affinity purification with mass spectrometry; SF-TAP-tagged bait overexpressed in HEK293T; lysis in 0.5% NP-40 in TBS (30 mM Tris-HCl pH 7.4, 150 mM NaCl); two steps at 4 °C: Strep-Tactin superflow (desthiobiotin elution), then anti-FLAG M2 agarose (FLAG peptide elution); LC-MS/MS; interactions scored by socioaffinity
[3] = biological target: SLC9A3R2 (human) (UniProt Q15599); experiment: affinity purification with mass spectrometry; SF-TAP of tagged baits overexpressed in HEK293T (Strep-Tactin, then anti-FLAG M2 agarose, FLAG peptide elution; lysis 0.5% NP-40 in TBS, 4 °C); LC-MS/MS; interactions scored by socioaffinity (spoke and matrix evidence), FDR/FPR≤0.1
[4] = biological target: T1, DNAAF1 (human) (UniProt Q8NEP3); experiment: affinity purification with mass spectrometry; SF-TAP-tagged bait overexpressed in HEK293T; lysis in 0.5% NP-40 in TBS (30 mM Tris-HCl pH 7.4, 150 mM NaCl); two steps at 4 °C: Strep-Tactin superflow (desthiobiotin elution), then anti-FLAG M2 agarose (FLAG peptide elution); LC-MS/MS; interactions scored by socioaffinity
T1 sequence: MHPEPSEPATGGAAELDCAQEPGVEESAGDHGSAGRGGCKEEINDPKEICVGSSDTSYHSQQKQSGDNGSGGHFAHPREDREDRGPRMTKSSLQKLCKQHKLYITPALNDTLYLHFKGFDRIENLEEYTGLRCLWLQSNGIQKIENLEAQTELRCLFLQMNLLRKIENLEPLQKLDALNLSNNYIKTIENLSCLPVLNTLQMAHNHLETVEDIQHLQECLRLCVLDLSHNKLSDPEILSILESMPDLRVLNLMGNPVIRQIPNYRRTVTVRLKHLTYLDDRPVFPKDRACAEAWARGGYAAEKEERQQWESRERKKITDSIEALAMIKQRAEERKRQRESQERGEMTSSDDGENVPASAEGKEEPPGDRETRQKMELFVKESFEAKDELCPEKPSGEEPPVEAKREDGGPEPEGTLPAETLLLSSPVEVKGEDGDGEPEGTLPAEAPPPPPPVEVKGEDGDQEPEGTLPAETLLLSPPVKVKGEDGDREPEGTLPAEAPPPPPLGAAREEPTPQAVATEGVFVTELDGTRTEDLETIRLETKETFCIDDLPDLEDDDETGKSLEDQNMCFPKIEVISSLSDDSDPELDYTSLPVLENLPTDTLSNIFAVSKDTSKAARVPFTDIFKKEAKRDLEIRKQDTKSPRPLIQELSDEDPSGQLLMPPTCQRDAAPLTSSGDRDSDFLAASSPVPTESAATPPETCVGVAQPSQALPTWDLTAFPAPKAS

[5] = biological target: T2, FAM161A (human) (UniProt Q3B820); experiment: as above
T2 sequence: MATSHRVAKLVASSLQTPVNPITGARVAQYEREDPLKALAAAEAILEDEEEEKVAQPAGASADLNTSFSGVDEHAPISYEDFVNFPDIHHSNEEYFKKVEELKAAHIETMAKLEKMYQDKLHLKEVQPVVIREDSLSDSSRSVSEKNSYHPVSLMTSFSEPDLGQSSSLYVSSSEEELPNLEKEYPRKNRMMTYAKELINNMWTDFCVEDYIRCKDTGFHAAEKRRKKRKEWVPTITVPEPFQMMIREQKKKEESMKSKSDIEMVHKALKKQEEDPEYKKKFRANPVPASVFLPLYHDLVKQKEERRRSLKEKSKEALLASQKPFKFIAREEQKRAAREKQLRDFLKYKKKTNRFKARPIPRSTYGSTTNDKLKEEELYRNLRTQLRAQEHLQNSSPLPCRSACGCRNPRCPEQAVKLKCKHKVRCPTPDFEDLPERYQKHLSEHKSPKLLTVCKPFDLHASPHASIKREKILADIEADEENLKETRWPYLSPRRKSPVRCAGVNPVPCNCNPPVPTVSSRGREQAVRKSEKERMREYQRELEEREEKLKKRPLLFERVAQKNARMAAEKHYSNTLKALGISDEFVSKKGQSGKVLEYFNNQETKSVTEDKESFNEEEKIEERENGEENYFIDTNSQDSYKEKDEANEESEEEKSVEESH

[6] = biological target: T3, ANKS3 (human) (UniProt Q6ZW76); experiment: as above
T3 sequence: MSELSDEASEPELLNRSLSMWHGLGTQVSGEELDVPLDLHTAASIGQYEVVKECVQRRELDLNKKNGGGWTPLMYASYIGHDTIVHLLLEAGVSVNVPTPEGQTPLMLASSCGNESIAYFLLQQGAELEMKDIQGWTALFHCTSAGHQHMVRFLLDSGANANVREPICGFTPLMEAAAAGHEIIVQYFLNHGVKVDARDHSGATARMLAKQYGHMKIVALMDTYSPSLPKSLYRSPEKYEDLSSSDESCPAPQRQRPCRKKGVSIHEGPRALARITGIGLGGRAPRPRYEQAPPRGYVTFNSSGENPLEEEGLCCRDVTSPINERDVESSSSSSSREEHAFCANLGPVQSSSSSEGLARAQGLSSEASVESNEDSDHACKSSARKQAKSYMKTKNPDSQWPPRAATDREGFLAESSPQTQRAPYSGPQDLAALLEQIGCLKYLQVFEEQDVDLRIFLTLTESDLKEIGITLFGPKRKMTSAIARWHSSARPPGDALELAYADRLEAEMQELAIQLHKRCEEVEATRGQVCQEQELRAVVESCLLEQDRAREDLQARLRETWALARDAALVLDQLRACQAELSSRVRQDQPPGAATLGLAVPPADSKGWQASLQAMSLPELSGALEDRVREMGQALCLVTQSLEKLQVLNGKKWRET

binding [1]: binds
Substance: Polo-like kinase 1 (from UniProt P53350 1-603)

binding [2]: binds
Substance: DNAJB4 (from UniProt Q9UDY4 1-337)

binding [2]: binds
Substance: GTF2H1 (from UniProt P32780 1-548)

binding [3]: binds
Substance: YAP1 (from UniProt P46937 1-504)

binding [4]: binds | binding [5]: binds | binding [6]: binds
Substance: OBSL1 (from UniProt O75147 1-1896)

binding [2]: binds
Substance: DNAJB1 (from UniProt P25685 1-340)
